Test results: article PMC4920195, “Non-Smc element 5 (Nse5) of the Smc5/6 complex interacts with SUMO pathway components” (Biology Open, 2016)
Numbering of substitutions follows the chain as printed. No constants are given. Whether binding was seen depends on the method and setting. A result given as binding can be weak or reduced; the word gives no strength.

Experiments:
Experiment in all cases: two-hybrid; LexA bait and B42 activating domain prey, galactose-induced; liquid culture, quantitative beta-galactosidase activity of permeabilized cells with reporter pSH18034, wild-type cells (JC470)
[1] = target: T1, Nse5-N183D-LexA (S. cerevisiae) (UniProt Q03718)
T1 sequence: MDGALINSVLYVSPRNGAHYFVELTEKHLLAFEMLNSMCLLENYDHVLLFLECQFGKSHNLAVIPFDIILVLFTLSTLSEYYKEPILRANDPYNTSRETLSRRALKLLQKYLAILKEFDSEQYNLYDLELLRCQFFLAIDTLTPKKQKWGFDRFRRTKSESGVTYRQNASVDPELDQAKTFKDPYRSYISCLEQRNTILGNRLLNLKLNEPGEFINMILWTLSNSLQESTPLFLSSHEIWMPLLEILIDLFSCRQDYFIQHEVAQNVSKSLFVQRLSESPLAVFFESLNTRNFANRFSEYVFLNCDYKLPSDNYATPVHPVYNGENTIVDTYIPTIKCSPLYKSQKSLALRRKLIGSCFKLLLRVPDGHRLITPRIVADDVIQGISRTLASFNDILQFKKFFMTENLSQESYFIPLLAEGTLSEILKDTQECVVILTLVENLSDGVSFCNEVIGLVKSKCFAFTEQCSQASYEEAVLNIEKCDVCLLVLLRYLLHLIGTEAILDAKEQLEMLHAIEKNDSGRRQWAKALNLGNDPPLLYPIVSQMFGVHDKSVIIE

[2] = target: T2, Nse5-L247A-LexA (S. cerevisiae) (UniProt Q03718)
T2 sequence: T1 sequence with D183N, L247A

[3] = target: T3, Nse5-L70A-LexA (S. cerevisiae) (UniProt Q03718)
T3 sequence: T1 sequence with L70A, D183N

[4] = target: T4, Nse5-Y111H-LexA (S. cerevisiae, UniProt Q03718 1-556, Y111H)
T4 construct: Nse5 of Saccharomyces cerevisiae, point mutant; also called J-132; source: yeast two-hybrid fusion, galactose-inducible promoter, in S. cerevisiae
T4 sequence (looked up): T1 sequence with Y111H, D183N

[5] = target: T5, Nse5-Y123H-LexA (S. cerevisiae, UniProt Q03718 1-556, Y123H)
T5 construct: Nse5 of Saccharomyces cerevisiae, point mutant; also called J-131; source: yeast two-hybrid fusion, galactose-inducible promoter, in S. cerevisiae
T5 sequence (looked up): T1 sequence with Y123H, D183N

[6] = target: T6, Nse5-H319Y-LexA (S. cerevisiae, UniProt Q03718 1-556, H319Y)
T6 construct: Nse5 of Saccharomyces cerevisiae, point mutant; also called J-120; source: yeast two-hybrid fusion, galactose-inducible promoter, in S. cerevisiae
T6 sequence (looked up): T1 sequence with D183N, H319Y

[7] = target: T7, Nse5-LexA (wild type) (S. cerevisiae, UniProt Q03718 1-556)
T7 construct: Nse5 of Saccharomyces cerevisiae, NSE5 gene cloned into a pEG202-derived bait plasmid; also called Non-Smc element 5; J-038; source: yeast two-hybrid fusion, galactose-inducible promoter, in S. cerevisiae
T7 sequence (looked up): T1 sequence with D183N

binding [1]: binds | binding [2]: binds | binding [3]: binds | binding [4]: binds | binding [5]: binds | binding [6]: binds | binding [7]: binds
Substance: Nse6-AD (S. cerevisiae)
